Earlier results as cited in patent US20020064834A1, “Microbiological production method for alpha-L-aspartyl-L-phenylalanine” (priority 1999, published 2002).
For at least one compound, name, drawing or mass did not settle the structure.

**Q.** With `COC(=O)[C@H](Cc1ccccc1)NC(=O)C[C@H](N)C(=O)O` [β-form of APM] as the compound, how does the sweet properties read?
**A.** do not have sweet properties
